These results are taken from publication PMC5270673, “Altered stoichiometry and nuclear delocalization of NonO and PSF promote cellular senescence” (Aging (Albany NY), 2016).

These are yes or no findings as the source states them, for the method shown. Some binding calls cover weakened binding; strength is not graded here.

The experiment has as its target T1, Splicing Factor Proline/Glutamine Rich, PSF/SFPQ (human (endogenous in BJ fibroblasts)) (UniProt P23246).
T1 sequence: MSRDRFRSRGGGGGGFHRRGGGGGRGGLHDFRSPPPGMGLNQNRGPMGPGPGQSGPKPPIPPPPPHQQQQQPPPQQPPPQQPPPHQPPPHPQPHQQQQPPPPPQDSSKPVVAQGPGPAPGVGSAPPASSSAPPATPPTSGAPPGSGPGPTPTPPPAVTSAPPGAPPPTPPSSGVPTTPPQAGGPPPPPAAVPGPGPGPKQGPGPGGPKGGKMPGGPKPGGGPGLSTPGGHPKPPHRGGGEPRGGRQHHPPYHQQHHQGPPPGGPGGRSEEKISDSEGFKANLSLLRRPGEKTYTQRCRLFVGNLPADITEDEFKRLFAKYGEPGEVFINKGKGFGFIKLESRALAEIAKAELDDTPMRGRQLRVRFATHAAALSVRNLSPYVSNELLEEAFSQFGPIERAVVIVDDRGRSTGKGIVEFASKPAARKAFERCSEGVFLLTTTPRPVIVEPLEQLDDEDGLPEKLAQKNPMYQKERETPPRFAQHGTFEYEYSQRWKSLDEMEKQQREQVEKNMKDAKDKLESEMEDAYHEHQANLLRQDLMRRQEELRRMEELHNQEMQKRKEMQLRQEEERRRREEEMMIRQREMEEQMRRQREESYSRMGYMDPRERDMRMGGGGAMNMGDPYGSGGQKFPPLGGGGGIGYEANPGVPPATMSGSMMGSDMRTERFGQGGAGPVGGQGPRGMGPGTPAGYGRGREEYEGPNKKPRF
Nature of the experiment: SEC; Superose 6 FPLC of nuclear and cytoplasmic extracts of BJ fibroblasts, untransfected or overexpressing NonO, day 8; 400 mM KCl, 20 mM HEPES pH 7.9, 1.0 mM MgCl2, 0.5 mM EGTA, 10% glycerol; fractions blotted with anti-NonO and anti-PSF; masses estimated from marker proteins.

B1: NonO overexpressed in BJ fibroblasts (natural protein, UniProt Q99K48 1-473, looked up)
chain: MQSNKAFNLEKQNHTPRKHHQHHHQQHHQQQQQQQQQQPPPPIPANGQQASSQNEGLTIDLKNFRKPGEKTFTQRSRLFVGNLPPDITEEEMRKLFEKYGKAGEVFIHKDKGFGFIRLETRTLAEIAKVELDNMPLRGKQLRVRFACHSASLTVRNLPQYVSNELLEEAFSVFGQVERAVVIVDDRGRPSGKGIVEFSGKPAARKALDRCSEGSFLLTTFPRPVTVEPMDQLDDEEGLPEKLVIKNQQFHKEREQPPRFAQPGSFEYEYAMRWKALIEMEKQQQDQVDRNIKEAREKLEMEMEAARHEHQVMLMRQDLMRRQEELRRMEELHNQEVQKRKQLELRQEEERRRREEEMRRQQEEMMRRQQEGFKGTFPDAREQEIRMGQMAMGGAMGINNRGAMPPAPVPPGTPAPPGPATMMPDGTLGLTPPTTERFGQAATMEGIGAIGGTPPAFNRPAPGAEFAPNKRRRY
notes: NonO cDNA expressed from a transfected plasmid; Its NonO fragments end at residue 473; The tag is therefore unknown; also called NonO OE; full-length NonO; source: BJ human diploid fibroblasts, stably transfected, nuclear or cytoplasmic extract
On to B1, for which the binding entry is listed as “binds”.
